# Measured values reported in the supplement of paper PMC5949888.
# ± gives the standard deviation of the averaged measurements. Most values lie at the floor of the assay. Slopes are relative: functional sequences can read slightly below zero.
# Test system: Saccharomyces cerevisiae PS128 hsf1 delta, HSF1(1-493) fusion
# Assay: growth estimate (transactivation domain function in HSF1 fusion, heat-shock survival) (a.u. (slope of normalised read count over time)); higher = stronger growth at 37°C, i.e. more transactivation activity
# Details: library: random library
row,Substance,growth estimate
1,VLCMTLHFFGDYALGEYPPP,< -0.25
2,VLDSWSFGPHGMLIENKTAY,< -0.25
3,VLDTVPVSIRGLKK,< -0.25
4,VLEQNFLRLDWH,< -0.25
5,VLERAVYRR,< -0.25
6,VLEVEIRQKT,< -0.25
7,VLFPAWLVRPRCSPDYQIVT,< -0.25
8,VLFPQPSCEEIGYRRLNSPY,< -0.25
9,VLFRASFIWHHLVTSEIWAF,< -0.25
10,VLFSSSDLVWSTAQDKYLGI,-0.181
11,VLGAIY,< -0.25
12,VLGAR,< -0.25
13,VLGAREGLVDHVVQSGNAQV,< -0.25
14,VLGGTAAMGPRRGRA,< -0.25
15,VLGLPA,< -0.25
16,VLGRHWRYSR,< -0.25
17,VLGRPEY,< -0.25
18,VLGSLQAICWWPGALRTGRR,< -0.25
19,VLGSVGRAESHRNTRRRLCG,< -0.25
20,VLGTGCPSTLISRTLLPHRR,< -0.25
21,VLGWRTSVDRRGAGIWGLSR,< -0.25
22,VLGYRYTSAPIGILIMIDTI,< -0.25
23,VLHTGQLSVQVPLLGV,< -0.25
24,VLIGLDCESYLPKCPDRKGI,< -0.25
25,VLITSGSLVQGFVRTAGGFC,< -0.25
26,VLKGIRAAL,< -0.25

# No new results follow: entries from further up.
row,Substance,growth estimate
19,VLGSVGRAESHRNTRRRLCG,< -0.25
20,VLGTGCPSTLISRTLLPHRR,< -0.25
21,VLGWRTSVDRRGAGIWGLSR,< -0.25
22,VLGYRYTSAPIGILIMIDTI,< -0.25
23,VLHTGQLSVQVPLLGV,< -0.25
24,VLIGLDCESYLPKCPDRKGI,< -0.25

# Further records

row,Substance,growth estimate
1,VLKGSGYSPRFEGQVELAGV,< -0.25
2,VLKMLA,< -0.25
3,VLLADERIRIRLLSLPTGTV,< -0.25
4,VLLFGLYKLVSSSRPPITDG,< -0.25
5,VLLGDMPESR,< -0.25
6,VLLLIS,< -0.25
7,VLLLLLLCENPVTVQVDAGT,< -0.25
8,VLLNNITR,< -0.25
9,VLLRQSSGYRFAGR,< -0.25
10,VLLSSGTCLGASCEYASCVP,< -0.25
11,VLLVRGLRSRHGRFLVCVTA,< -0.25
12,VLNS,< -0.25
13,VLP,-0.0333 ± 0.31
14,VLPAPIRARYKESNK,< -0.25
15,VLPEYVGGCKIPWVSAGRMD,< -0.25
16,VLPHWAPQENRWVLAPIATV,< -0.25
17,VLPLDKVLCVLRRT,< -0.25
18,VLPRVTVAIDTE,< -0.25
19,VLPSSA,< -0.25
20,VLPTLRGCVTLWYNSPTSAA,< -0.25
21,VLPWSSPGNLVSAIDRSLRY,< -0.25
22,VLQCLR,< -0.25
23,VLQVALALG,< -0.25
24,VLRLV,< -0.25
25,VLRQYASQEGPAFTSSPNST,< -0.25
26,VLRRGFQICTGCAPIVAGHA,< -0.25

row,Substance,growth estimate
1,VLRT,< -0.25
2,VLRVYFHANWDPDTT,< -0.25
3,VLRYPGKGPHRRGKASNSNV,< -0.25
4,VLS,< -0.25
5,VLSANPLKAMGSENRKGRGP,< -0.25
6,VLSGDRCSYARTSLIIQFRT,< -0.25
7,VLSPPLPQP,< -0.25
8,VLTISAWFLWA,< -0.25
9,VLTRKEEGNKTPYRVCIPYA,< -0.25
10,VLVDPQKSFQSLRCVTHISW,< -0.25
11,VLVGCGFTSGR,< -0.25
12,VLVIVLLQTKL,< -0.25
13,VLVLVLRNDTGKYGGSILMQ,< -0.25
14,VLVQDAVPFYPSGSAKVLA,< -0.25
15,VLVSPGDSVCFMIWDQEGFI,< -0.25
16,VLVSRPFMWPHWKARGEVSS,< -0.25
17,VLVTALRFKTAERGIMCVTA,< -0.25
18,VLYFSAM,< -0.25
19,VLYTV,< -0.25
20,VMALTVHGVSQGHEDGES,< -0.25
21,VMARFQKRNSGRALPLLSET,< -0.25
22,VMETGRTTPIGYPRSTINGA,< -0.25
23,VMF,< -0.25
24,VMGGLLRQT,< -0.25
25,VMGLEVIWRP,< -0.25
26,VMGLFACVTTDQRSSRGRIV,< -0.25

row,Substance,growth estimate
1,VMGLSGDGVGSTRYLELAPW,< -0.25
2,VMIGGARRMGL,< -0.25
3,VMKTQVPFVRGFVV,< -0.25
4,VMLAPG,< -0.25
5,VMLGWVVAQFGCTNRKSAT,< -0.25
6,VMPCYKL,< -0.25
7,VMPGWSGMRLLKSSNSCGCP,< -0.25
8,VMQ,< -0.25
9,VMRALDPAEMSGHRSCNIED,< -0.25
10,VMSGLKFHMCVLATEARARI,< -0.25
11,VMSLLYALLLRPHRGEKSTG,< -0.25
12,VMVAAPLRYRAAPQSYAAFS,< -0.25
13,VMVQCPCTPGSRTTLRMSCI,< -0.25
14,VMWKSPSIPRRSNRRRTNDS,< -0.25
15,VNCDGALLPTKPGQMNPARV,< -0.25
16,VNCQGNVLCPVLSNGAAVTG,< -0.25
17,VNDGQPYDN,-0.243
18,VNDHKRRGYFTSTRSVSPGA,-0.243
19,VNDVGEVRRRTPIVT,< -0.25
20,VNEPEDVSQICV,< -0.25
21,VNEPSASPRVRHVALPLVSA,< -0.25
22,VNIFSRNIVKV,< -0.25
23,VNKTASRLFMPPLLDKTFRP,< -0.25
24,VNLDIMYSGKTGGMQRSNGA,< -0.25
25,VNLIAAKITSDRCALPQSYT,< -0.25
26,VNLNLPRPCHRLLHCQLDAC,< -0.25

row,Substance,growth estimate
1,VNLQPCVHTSNGK,< -0.25
2,VNNADIIGRECDSTGQGSTR,< -0.25
3,VNNFQ,< -0.25
4,VNNTILHPTVSI,< -0.25
5,VNSRKAGGEFPLLA,< -0.25
6,VNVLISRL,< -0.25
7,VNVRCMFHNVGSGV,-0.246
8,VNY,< -0.25
9,VPCGYDLGGPHGFLCEKDVV,< -0.25
10,VPDCAYYYYKYM,< -0.25
11,VPEGVFRRAH,< -0.25
12,VPESKRLHGAVPRSHQRITY,< -0.25
13,VPGGVRMIGQI,< -0.25
14,VPGH,< -0.25
15,VPGTARCLCGSALCRRGQR,< -0.25
16,VPHSVSSLQPGVL,< -0.25
17,VPINASNTPMTDRAPRESSD,< -0.25
18,VPIPIRDRMVAISLMRVLGM,< -0.25
19,VPIRLAMSSMIAKSAGHGNT,< -0.25
20,VPKEYRRFPTLVMAKSGRPR,< -0.25
21,VPKSGEVGLSKPGGGVDDKG,< -0.25
22,VPLRV,< -0.25
23,VPLTLFTREHDWLRLMLSQG,< -0.25
24,VPNL,< -0.25
25,VPPFQIGTPN,< -0.25
26,VPQINEGCKSGREGVLIRAS,< -0.25

# Reprinted at random: four records from the list, in no set order.
row,Substance,growth estimate
19,VPIRLAMSSMIAKSAGHGNT,< -0.25
7,VNVRCMFHNVGSGV,-0.246
20,VPKEYRRFPTLVMAKSGRPR,< -0.25
8,VNY,< -0.25

# Next part:

row,Substance,growth estimate
1,VPQLGLCLHGSASRACKYRC,< -0.25
2,VPQSYP,< -0.25
3,VPR,< -0.25
4,VPRETRATSAGKGYDVQTLC,< -0.25
5,VPRGASGRLDVERTRQAPR,< -0.25
6,VPRMSSSRWTG,< -0.25
7,VPRPRAEVLV,< -0.25
8,VPRRHLGQRKWRALHSQ,< -0.25
9,VPRRYNNASHTD,-0.116
10,VPRSRD,< -0.25
11,VPSFLFLQRLRF,< -0.25
12,VPSSPLSYGFHKPKGRIGMV,< -0.25
13,VPTGRTAHTIRLTPERRPDE,< -0.25
14,VPTIYCQGLGLYRYRGDNVA,< -0.25
15,VPVIYA,< -0.25
16,VPVK,< -0.25
17,VPVKEPPNATCSTSSTFGIR,< -0.25
18,VPVLLTCDLKVGILCSGQAR,< -0.25
19,VPVSPYSWHLLR,-0.219
20,VPWRP,< -0.25
21,VPY,< -0.25
22,VQAAF,< -0.25
23,VQAGQAIWEYSTWKTNLFVA,< -0.25
24,VQAHRPDR,< -0.25
25,VQAIARRGAFAMLLFWVTGL,< -0.25
26,VQASDPAKPTVSF,< -0.25

row,Substance,growth estimate
1,VQAWPLPPGGTLP,< -0.25
2,VQFGRGGPLH,< -0.25
3,VQG,< -0.25
4,VQGFWAVNETR,< -0.25
5,VQGYS,< -0.25
6,VQKALSKLSSSEMDRT,< -0.25
7,VQKVQIVRLSEN,< -0.25
8,VQLAQPGIVGGPA,< -0.25
9,VQLNSSVYCSGIQVCKLSVH,< -0.25
10,VQLSVMLGPGAVVS,< -0.25
11,VQMLPVAVKGDPPGALNTRR,< -0.25
12,VQNIFRRYLWGLTAVHD,< -0.25
13,VQPGCARIWRLGAGPSGERS,< -0.25
14,VQPNG,< -0.25
15,VQPPSGSE,< -0.25
16,VQR,< -0.25
17,VQRRYKLVGSRLSPLILALK,< -0.25
18,VQRVTI,-0.218
19,VRACALYAAFWIIASSRTHC,< -0.25
20,VRALLLYGMSV,< -0.25
21,VRASLATAIMCTL,< -0.25
22,VRAVRAFMVRPIVRRTSLCS,< -0.25
23,VRCIGDDQEYVLL,< -0.25
24,VRCPRTPIDEFRLGAA,< -0.25
25,VRCTPDNPAQSLRKYGPRAN,< -0.25
26,VRDCL,< -0.25

row,Substance,growth estimate
1,VRDGRPGPCGALVPLSYNTR,< -0.25
2,VRDISWCRLIDEVNDLRNGN,< -0.25
3,VRDLISASLKALEGCSPFTA,< -0.25
4,VRDPEVTCPGGAKTFGVTRS,< -0.25
5,VRDYPAYPS,< -0.25
6,VREWCSPTERPRNILGSNRQ,< -0.25
7,VRFLT,< -0.25
8,VRFRILVHGHSHQN,< -0.25
9,VRFTGEPCSDWFDVPATLKI,< -0.25
10,VRGD,< -0.25
11,VRGEAVCV,-0.245
12,VRGLCCGTPRSLSVNPGSGV,< -0.25
13,VRGNVGTRTRIGKKRSPLPP,< -0.25
14,VRGRLETTPL,< -0.25
15,VRGRVG,< -0.25
16,VRGSITGTKGSPIILLFDIG,< -0.25
17,VRGSSPRFFGSTAEGRLVWG,< -0.25
18,VRGVGFRCWYTRQGVSKGFA,< -0.25
19,VRHMQFRF,< -0.25
